Where two headings read alike, the source gives them in different places. Results are given in words; binding and its absence hold for the method and conditions named. Binding seen in cells or lysates may run through a third protein. Some results given as binding are weak or reduced against the parent protein; the word gives no strength. For some assays here: Sequences can lack the tags named with a protein.
Key:
[1] = target: Flag-tagged CacyBP (Calcyclin-Binding Protein and Siah-1 Interacting Protein) (human) (UniProt Q9HB71); assay: co-IP; HEK293T cells transiently co-transfected with Flag- and HA-tagged constructs; lysis and washes in NETN buffer (100 mM NaCl, 20 mM Tris-Cl pH 8.0, 0.5 mM EDTA, 0.5% IGEPAL); Flag-agarose beads at 4 °C overnight; western blotting
[2] = target: Myd88 in HCC cells (co-immunoprecipitation) (human) (UniProt Q99836); assay: co-IP; HCC cells transfected with the indicated plasmids; co-immunoprecipitation of Siah-1 and Myd88; western blotting
[3] = target: Myd88 in HCC cells (co-immunoprecipitation) (human) (UniProt Q99836); assay: co-IP; immunoprecipitation of Siah-1 and Myd88 after CacyBP depletion or overexpression in PLC/PRF/5 or Huh7 cells (competition)
[4] = target: Myd88 detected in situ in PLC/PRF/5 and Huh7 cells (proximity ligation assay) (human) (UniProt Q99836); assay: proximity ligation; Duolink In Situ Red kit Mouse/Rabbit on fixed, permeabilised PLC/PRF/5 and Huh7 cells after CacyBP silencing or overexpression; confocal microscopy
[5] = target: Flag-tagged Myd88 (human) (UniProt Q99836); assay: co-IP; HEK293T cells transiently co-transfected with Flag- and HA-tagged constructs; lysis and washes in NETN buffer (100 mM NaCl, 20 mM Tris-Cl pH 8.0, 0.5 mM EDTA, 0.5% IGEPAL); Flag-agarose beads at 4 °C overnight; western blotting
[6] = target: Flag-tagged CacyBP (Calcyclin-Binding Protein and Siah-1 Interacting Protein) (human) (UniProt Q9HB71); assay: as above; remark: listed apart in the source
[7] = target: Flag-tagged Myd88 △DD (human) (UniProt Q99836); assay: as above
[8] = target: Flag-tagged Myd88 △INT (human) (UniProt Q99836); assay: as above

The chains behind the UniProt entries cited, without tags or fusion partners. Where a name states a change or a piece, a line headed by the entry shows the natural chain unless it says otherwise. A line that says so, or that is headed by a name, gives the form on record, which may keep a tag or linker.
UniProt Q9HB71: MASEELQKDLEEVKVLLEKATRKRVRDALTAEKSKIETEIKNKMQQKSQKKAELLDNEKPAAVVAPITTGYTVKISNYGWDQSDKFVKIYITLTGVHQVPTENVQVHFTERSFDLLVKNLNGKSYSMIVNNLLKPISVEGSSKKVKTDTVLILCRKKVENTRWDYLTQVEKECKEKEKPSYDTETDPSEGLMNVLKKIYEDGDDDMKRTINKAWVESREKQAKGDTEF
UniProt Q99836: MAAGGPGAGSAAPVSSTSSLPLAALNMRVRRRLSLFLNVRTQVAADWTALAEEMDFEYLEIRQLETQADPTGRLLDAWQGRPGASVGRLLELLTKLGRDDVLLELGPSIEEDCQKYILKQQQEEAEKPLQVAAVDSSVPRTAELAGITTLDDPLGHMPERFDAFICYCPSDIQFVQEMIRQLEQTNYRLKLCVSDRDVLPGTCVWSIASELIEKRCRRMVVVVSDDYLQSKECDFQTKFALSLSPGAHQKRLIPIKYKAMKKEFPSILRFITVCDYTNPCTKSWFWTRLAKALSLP
Flag-tagged Myd88 △DD (Q99836, form named): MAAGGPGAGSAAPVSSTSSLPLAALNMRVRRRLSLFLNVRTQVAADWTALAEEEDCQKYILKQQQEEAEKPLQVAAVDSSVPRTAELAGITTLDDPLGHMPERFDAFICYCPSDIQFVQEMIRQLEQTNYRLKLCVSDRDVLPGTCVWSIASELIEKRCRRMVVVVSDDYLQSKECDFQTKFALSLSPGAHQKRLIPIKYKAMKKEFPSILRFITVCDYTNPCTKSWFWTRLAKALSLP
Flag-tagged Myd88 △INT (Q99836, form named): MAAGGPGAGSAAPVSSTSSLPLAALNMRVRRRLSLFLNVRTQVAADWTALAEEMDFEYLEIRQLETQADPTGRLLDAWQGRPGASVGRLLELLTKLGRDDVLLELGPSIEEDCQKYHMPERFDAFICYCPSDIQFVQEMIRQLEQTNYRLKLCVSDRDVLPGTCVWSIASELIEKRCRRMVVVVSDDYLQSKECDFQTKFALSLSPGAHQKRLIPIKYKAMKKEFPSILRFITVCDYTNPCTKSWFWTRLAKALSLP

## HA-tagged Myd88 (from UniProt Q99836 1-296)
[1]
  binding: binds

B1: Siah-1 in HCC cells (co-immunoprecipitation) (enzyme, UniProt Q8IUQ4 1-282)
chain: MSRQTATALPTGTSKCPPSQRVPALTGTTASNNDLASLFECPVCFDYVLPPILQCQSGHLVCSNCRPKLTCCPTCRGPLGSIRNLAMEKVANSVLFPCKYASSGCEITLPHTEKADHEELCEFRPYSCPCPGASCKWQGSLDAVMPHLMHQHKSITTLQGEDIVFLATDINLPGAVDWVMMQSCFGFHFMLVLEKQEKYDGHQQFFAIVQLIGTRKQAENFAYRLELNGHRRRLTWEATPRSIHEGIATAIMNSDCLVFDTSIAQLFAENGNLGINVTISMC
[2]
  binding: binds
[3]
  binding: binds

B2: Siah-1 detected in situ in PLC/PRF/5 and Huh7 cells (proximity ligation assay) (enzyme, UniProt Q8IUQ4 1-282)
chain: MSRQTATALPTGTSKCPPSQRVPALTGTTASNNDLASLFECPVCFDYVLPPILQCQSGHLVCSNCRPKLTCCPTCRGPLGSIRNLAMEKVANSVLFPCKYASSGCEITLPHTEKADHEELCEFRPYSCPCPGASCKWQGSLDAVMPHLMHQHKSITTLQGEDIVFLATDINLPGAVDWVMMQSCFGFHFMLVLEKQEKYDGHQQFFAIVQLIGTRKQAENFAYRLELNGHRRRLTWEATPRSIHEGIATAIMNSDCLVFDTSIAQLFAENGNLGINVTISMC
[4]
  binding: binds

B3: HA-tagged Siah-1 (enzyme, UniProt Q8IUQ4 1-282)
chain: MSRQTATALPTGTSKCPPSQRVPALTGTTASNNDLASLFECPVCFDYVLPPILQCQSGHLVCSNCRPKLTCCPTCRGPLGSIRNLAMEKVANSVLFPCKYASSGCEITLPHTEKADHEELCEFRPYSCPCPGASCKWQGSLDAVMPHLMHQHKSITTLQGEDIVFLATDINLPGAVDWVMMQSCFGFHFMLVLEKQEKYDGHQQFFAIVQLIGTRKQAENFAYRLELNGHRRRLTWEATPRSIHEGIATAIMNSDCLVFDTSIAQLFAENGNLGINVTISMC
[5]
  binding: binds
[6]
  binding: binds
[7]
  binding: binds
[8]
  binding: binds

From paper PMC10652496
